The values that follow come from the supplement of paper PMC10849652.

The chains behind the UniProt entries cited, without tags or fusion partners. Where a name states a change or a piece, a line headed by the entry shows the natural chain unless it says otherwise.
UniProt Q96QU6: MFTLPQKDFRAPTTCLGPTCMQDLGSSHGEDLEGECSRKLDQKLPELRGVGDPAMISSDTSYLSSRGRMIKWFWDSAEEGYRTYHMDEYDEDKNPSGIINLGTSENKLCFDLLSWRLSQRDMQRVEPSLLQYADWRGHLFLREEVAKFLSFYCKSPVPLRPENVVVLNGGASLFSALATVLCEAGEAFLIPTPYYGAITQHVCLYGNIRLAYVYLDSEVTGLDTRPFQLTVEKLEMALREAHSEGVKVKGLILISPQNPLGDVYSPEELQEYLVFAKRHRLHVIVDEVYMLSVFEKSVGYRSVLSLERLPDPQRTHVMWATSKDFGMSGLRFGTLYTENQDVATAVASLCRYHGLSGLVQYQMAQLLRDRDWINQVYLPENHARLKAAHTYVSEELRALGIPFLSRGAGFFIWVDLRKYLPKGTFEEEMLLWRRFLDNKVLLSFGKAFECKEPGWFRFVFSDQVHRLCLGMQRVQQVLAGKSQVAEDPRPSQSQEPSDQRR
UniProt Q5VST6: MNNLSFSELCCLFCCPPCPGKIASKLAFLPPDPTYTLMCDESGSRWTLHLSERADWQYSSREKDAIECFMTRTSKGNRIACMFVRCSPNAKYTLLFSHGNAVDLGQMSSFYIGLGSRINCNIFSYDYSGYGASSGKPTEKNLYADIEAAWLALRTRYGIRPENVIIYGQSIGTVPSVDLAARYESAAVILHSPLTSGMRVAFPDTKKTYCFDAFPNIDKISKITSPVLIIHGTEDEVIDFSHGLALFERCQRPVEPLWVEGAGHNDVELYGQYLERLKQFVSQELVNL
UniProt P33897: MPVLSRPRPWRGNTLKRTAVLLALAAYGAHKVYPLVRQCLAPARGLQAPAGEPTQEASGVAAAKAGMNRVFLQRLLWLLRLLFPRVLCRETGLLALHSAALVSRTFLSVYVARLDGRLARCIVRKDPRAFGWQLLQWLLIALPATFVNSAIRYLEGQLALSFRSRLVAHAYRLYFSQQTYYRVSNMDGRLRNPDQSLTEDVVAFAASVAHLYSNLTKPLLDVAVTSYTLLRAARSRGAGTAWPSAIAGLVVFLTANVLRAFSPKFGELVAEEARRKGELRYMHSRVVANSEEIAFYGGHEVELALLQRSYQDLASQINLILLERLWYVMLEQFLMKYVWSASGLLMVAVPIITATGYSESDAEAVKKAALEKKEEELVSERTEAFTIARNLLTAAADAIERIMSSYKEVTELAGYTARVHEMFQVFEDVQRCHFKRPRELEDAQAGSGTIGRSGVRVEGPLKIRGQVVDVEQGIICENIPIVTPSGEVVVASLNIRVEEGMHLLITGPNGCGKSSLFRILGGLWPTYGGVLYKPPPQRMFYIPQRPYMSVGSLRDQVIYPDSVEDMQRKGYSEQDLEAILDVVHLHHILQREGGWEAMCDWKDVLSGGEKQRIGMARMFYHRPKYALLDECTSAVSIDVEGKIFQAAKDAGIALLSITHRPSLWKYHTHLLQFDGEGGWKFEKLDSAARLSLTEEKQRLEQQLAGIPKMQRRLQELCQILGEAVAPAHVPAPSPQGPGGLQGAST
UniProt P24666: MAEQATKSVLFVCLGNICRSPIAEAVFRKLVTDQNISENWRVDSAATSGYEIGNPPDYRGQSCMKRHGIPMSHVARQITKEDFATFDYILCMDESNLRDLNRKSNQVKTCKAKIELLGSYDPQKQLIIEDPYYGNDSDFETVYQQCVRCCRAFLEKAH
UniProt Q8TDG2: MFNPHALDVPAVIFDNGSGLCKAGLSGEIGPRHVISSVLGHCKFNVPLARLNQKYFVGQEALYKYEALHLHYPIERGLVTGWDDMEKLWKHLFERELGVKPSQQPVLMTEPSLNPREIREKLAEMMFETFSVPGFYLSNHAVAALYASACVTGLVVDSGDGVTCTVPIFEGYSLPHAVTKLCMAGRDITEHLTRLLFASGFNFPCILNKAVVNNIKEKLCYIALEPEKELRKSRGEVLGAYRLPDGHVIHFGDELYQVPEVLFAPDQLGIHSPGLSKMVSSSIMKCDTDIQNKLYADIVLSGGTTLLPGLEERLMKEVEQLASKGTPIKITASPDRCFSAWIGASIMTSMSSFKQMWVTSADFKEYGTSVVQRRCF
UniProt Q04771: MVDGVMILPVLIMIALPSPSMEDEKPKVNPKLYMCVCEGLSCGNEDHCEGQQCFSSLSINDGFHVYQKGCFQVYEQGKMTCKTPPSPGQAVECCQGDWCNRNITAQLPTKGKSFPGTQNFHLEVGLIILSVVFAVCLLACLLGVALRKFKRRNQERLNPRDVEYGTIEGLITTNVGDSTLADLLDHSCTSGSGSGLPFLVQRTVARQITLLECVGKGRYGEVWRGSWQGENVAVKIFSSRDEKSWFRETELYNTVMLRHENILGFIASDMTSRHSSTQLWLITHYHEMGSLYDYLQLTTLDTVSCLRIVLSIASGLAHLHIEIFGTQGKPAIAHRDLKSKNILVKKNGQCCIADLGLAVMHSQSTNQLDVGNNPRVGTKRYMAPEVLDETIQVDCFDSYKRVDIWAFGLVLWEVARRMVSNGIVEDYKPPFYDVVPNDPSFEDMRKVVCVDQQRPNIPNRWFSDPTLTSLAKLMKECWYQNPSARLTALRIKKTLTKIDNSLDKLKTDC
UniProt Q8NFV4: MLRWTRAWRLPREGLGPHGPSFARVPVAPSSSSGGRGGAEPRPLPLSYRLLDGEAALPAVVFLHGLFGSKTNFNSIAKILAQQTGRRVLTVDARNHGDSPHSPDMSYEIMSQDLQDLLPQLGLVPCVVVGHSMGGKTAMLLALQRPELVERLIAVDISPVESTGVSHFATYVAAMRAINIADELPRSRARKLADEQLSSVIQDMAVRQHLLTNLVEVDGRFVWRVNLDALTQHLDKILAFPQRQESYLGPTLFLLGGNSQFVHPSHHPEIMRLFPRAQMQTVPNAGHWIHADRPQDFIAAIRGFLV
UniProt O15254: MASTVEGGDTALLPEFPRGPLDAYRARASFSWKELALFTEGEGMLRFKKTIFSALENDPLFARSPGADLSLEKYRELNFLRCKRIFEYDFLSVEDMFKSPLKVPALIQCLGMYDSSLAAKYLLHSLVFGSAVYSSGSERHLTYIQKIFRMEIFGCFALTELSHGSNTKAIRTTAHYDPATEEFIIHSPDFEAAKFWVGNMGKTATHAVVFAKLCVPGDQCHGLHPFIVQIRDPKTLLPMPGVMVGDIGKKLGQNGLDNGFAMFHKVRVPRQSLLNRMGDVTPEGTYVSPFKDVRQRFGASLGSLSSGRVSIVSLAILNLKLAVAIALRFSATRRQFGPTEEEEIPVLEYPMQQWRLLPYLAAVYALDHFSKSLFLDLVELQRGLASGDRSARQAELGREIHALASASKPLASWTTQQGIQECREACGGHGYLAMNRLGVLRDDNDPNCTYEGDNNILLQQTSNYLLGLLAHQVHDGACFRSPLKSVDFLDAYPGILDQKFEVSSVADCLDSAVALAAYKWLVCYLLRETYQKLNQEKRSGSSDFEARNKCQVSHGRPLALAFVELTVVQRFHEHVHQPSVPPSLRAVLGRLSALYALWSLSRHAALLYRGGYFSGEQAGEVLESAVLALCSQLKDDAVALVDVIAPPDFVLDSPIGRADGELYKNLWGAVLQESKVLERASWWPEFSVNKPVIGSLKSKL
UniProt Q9UKU0: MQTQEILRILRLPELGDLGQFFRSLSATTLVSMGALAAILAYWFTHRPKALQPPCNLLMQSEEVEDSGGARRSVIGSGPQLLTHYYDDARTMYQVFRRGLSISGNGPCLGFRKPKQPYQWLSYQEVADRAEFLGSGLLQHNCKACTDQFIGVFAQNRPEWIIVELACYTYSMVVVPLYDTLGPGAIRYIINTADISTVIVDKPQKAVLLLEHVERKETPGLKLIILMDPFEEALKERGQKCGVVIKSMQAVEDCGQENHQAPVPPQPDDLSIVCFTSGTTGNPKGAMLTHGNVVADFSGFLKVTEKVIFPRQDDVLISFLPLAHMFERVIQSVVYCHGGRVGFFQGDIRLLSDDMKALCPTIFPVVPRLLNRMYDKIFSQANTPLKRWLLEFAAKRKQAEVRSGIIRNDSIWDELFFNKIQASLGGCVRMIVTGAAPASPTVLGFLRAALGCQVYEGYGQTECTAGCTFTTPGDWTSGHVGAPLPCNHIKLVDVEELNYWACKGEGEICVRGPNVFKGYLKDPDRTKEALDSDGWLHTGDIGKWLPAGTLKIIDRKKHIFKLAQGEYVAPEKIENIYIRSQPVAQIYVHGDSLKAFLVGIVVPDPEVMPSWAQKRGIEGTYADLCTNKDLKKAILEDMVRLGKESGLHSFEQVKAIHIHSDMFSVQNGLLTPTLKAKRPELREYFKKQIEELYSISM
UniProt P14621: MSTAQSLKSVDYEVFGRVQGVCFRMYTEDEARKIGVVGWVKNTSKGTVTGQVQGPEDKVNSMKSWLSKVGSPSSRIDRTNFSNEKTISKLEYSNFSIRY
UniProt Q96M93: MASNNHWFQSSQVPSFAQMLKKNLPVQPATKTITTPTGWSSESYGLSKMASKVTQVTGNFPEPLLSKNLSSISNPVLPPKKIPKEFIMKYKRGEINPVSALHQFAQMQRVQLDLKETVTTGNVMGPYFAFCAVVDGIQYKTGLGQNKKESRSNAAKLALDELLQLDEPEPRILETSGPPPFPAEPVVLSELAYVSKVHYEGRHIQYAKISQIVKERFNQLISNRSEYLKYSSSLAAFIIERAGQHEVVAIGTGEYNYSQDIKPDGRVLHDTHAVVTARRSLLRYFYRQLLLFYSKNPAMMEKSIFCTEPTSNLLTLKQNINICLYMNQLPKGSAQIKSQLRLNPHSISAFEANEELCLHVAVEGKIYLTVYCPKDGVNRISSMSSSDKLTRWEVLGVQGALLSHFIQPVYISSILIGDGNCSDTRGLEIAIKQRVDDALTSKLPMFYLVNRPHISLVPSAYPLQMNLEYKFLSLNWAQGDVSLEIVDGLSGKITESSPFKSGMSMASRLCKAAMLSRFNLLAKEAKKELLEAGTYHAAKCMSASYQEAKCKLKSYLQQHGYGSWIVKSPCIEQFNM
UniProt P21439, whole entry, looked up: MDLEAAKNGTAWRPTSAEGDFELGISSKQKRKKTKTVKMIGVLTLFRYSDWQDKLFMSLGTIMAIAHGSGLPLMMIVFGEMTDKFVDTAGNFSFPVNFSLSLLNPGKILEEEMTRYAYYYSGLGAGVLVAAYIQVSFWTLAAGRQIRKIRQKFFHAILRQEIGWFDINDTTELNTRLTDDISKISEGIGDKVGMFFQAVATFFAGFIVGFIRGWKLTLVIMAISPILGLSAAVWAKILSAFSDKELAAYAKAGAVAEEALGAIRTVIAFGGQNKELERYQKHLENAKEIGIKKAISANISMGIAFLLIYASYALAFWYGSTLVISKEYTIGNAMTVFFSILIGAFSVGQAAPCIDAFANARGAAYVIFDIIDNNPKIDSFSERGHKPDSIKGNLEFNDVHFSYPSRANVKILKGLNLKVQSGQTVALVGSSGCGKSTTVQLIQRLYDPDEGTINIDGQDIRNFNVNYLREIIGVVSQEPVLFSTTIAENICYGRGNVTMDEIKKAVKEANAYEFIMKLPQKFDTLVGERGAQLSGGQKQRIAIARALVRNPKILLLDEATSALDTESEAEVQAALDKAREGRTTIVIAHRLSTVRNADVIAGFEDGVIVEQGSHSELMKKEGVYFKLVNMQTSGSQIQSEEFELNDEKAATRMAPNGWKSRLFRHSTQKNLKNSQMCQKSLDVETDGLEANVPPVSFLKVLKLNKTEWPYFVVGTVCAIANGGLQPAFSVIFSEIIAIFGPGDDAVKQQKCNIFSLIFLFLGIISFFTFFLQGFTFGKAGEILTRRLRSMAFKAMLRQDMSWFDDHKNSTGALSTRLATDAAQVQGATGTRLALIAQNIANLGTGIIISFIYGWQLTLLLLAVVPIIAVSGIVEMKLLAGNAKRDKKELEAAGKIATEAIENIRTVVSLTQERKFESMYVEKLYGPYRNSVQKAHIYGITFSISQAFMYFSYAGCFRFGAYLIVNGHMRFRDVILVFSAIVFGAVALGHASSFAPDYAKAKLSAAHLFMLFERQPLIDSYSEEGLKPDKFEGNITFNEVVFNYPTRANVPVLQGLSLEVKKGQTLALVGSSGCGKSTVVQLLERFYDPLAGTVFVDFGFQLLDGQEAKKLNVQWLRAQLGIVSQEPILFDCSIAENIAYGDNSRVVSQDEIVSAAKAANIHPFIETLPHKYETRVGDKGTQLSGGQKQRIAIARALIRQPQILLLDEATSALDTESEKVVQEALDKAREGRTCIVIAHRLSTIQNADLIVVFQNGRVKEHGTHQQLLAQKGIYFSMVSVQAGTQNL
UniProt Q8N6N7: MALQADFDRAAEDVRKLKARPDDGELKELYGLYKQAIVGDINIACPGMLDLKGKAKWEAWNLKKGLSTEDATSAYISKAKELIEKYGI

Some of the results follow.

Compound in one assay: CCCCN(Cc1ccc(C(=O)NO)cc1)C(=O)Nc1ccccc1 [Nexturastat A]
Description: log2 fold change, soluble protein after heating vs DMSO (PISA); higher = thermal stabilisation; K562 cells, 10 uM, 30 min; active = over 0.2 and 3.5 SD of the protein, either way, in both replicates (recomputed). Summed up: (§1)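 Soluble protein was defined as the supernatant after 21,000xg for 90 min. It came from K562 cells at 2×10^6 cells/mL given 10 μM compound for 30 min, heated in aliquots for 3 min across 48°C-58°C, pooled, and extracted in PBS with 0.5% NP-40 at 4°C, and was quantified by TMTpro 16plex LC-MS/MS with equalised channel sums. Thermal stability against control samples, from duplicates, is reported as log2 fold change.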
For ACAT1, A0A5F9ZHJ0, the log2 fold change was inactive: -0.004.

As for ACCS (UniProt Q96QU6), the log2 fold change is inactive: 0.278.

For the target ABHD17B (UniProt Q5VST6), the log2 fold change was inactive: 0.027.

Consider ACAA2 (UniProt K7ER88), for which the log2 fold change was inactive: -0.255.

As for ABCD1 (UniProt P33897), the log2 fold change was inactive: 0.235.

For ACP1 (UniProt P24666), the log2 fold change is inactive: 0.001.

In the case of ABCE1 (UniProt H0Y990), the log2 fold change was inactive: -0.15.

On to ACTN1 (UniProt H9KV75), for which the log2 fold change was inactive: 0.201.

Regarding ABCA7 (UniProt Q8IZY2), the log2 fold change was inactive: -0.227.

As to ACTRT1 (UniProt Q8TDG2), the log2 fold change is inactive: -0.115.

As for ACVR1 (UniProt Q04771), the log2 fold change was inactive: 0.037.

Turning to ABHD4 (UniProt Q8TB40), the log2 fold change was inactive: 0.121.

For ABHD11 (UniProt Q8NFV4), the log2 fold change is inactive: -0.028.

With ACOX3 (UniProt O15254), the log2 fold change was inactive: 0.039.

For ADAM8 (UniProt P78325), the log2 fold change is inactive: -0.108.

On to ADAMTS13 (UniProt Q76LX8), for which the log2 fold change was inactive: -0.064.

For the target ACSL6 isoform 1 (UniProt Q9UKU0), the log2 fold change is inactive: 0.082.

For the target ABAT (UniProt P80404), the log2 fold change is inactive: -0.198.

In the case of AACS (UniProt Q86V21), the log2 fold change was inactive: 0.329.

Compound in the next assay: CCCS(=O)(=O)Nc1ccc(F)c(C(=O)c2c[nH]c3ncc(-c4ccc(Cl)cc4)cc23)c1F [vemurafenib]
The description is as above. A digest of the protocol: as §1
Regarding ACYP2 (UniProt P14621), the log2 fold change was inactive: 0.085.

For ACTR3B (UniProt Q9P1U1), the log2 fold change is inactive: 0.019.

As to ACOX1 isoform 3 (UniProt Q15067), the log2 fold change was inactive: 0.085.

With ABHD17B (UniProt Q5VST6), the log2 fold change was inactive: -0.052.

Take ACAA2 (UniProt K7ER88): the log2 fold change was inactive: -0.054.

As for ADAD1 (UniProt Q96M93), the log2 fold change was inactive: -0.11.

As to ACP1 (UniProt P24666), the log2 fold change was inactive: 0.071.

Regarding ABCE1 (UniProt H0Y990), the log2 fold change was inactive: 0.06.

As to ACTB, A0A2R8YEA7, the log2 fold change is inactive: 0.038.

With ABCF1 (UniProt Q5STZ8), the log2 fold change was inactive: -0.079.

As to ACTN1 (UniProt H9KV75), the log2 fold change was inactive: -0.055.

Turning to ACTRT1 (UniProt Q8TDG2), the log2 fold change is inactive: -0.161.

ACAD10 isoform 5 (UniProt Q6JQN1): the log2 fold change is inactive: 0.049.

On to ACVR1 (UniProt Q04771), for which the log2 fold change was inactive: 0.015.

Turning to ABHD11 (UniProt Q8NFV4), the log2 fold change is inactive: 0.139.

As to ACOX3 (UniProt O15254), the log2 fold change is inactive: 0.057.

With ACSL6 isoform 1 (UniProt Q9UKU0), the log2 fold change was inactive: 0.17.

For the target ABCB4 (UniProt P21439), the log2 fold change is inactive: -0.014.

Compound in the next assay: CCCS(=O)(=O)Nc1ccc(F)c(C(=O)c2c[nH]c3ncc(Cl)cc23)c1F
The assay is described as above. Summed up:
as §1
Turning to ABCB1 (UniProt P08183), the log2 fold change was inactive: -0.222.

In the case of ACYP2 (UniProt P14621), the log2 fold change is inactive: -0.103.

Turning to ACAT1, A0A5F9ZHJ0, the log2 fold change was inactive: 0.003.

Regarding ACTR3B (UniProt Q9P1U1), the log2 fold change was inactive: 0.014.

As to ABHD17B (UniProt Q5VST6), the log2 fold change is inactive: 0.031.

As for ACAA2 (UniProt K7ER88), the log2 fold change is inactive: 0.094.

For ACP1 (UniProt P24666), the log2 fold change was inactive: -0.047.

In the case of ABCE1 (UniProt H0Y990), the log2 fold change is inactive: -0.024.

For the target ACBD7 (UniProt Q8N6N7), the log2 fold change is inactive: -0.246.

In the case of ACTN1 (UniProt H9KV75), the log2 fold change is inactive: -0.084.

ACTRT1 (UniProt Q8TDG2): the log2 fold change was inactive: -0.374.

In the case of ACVR1 (UniProt Q04771), the log2 fold change is inactive: 0.017.

Regarding ABHD11 (UniProt Q8NFV4), the log2 fold change is inactive: -0.011.

In the case of ACOX3 (UniProt O15254), the log2 fold change was inactive: -0.009.

Turning to ADAMTS13 (UniProt Q76LX8), the log2 fold change is inactive: -0.112.

ABCB4 (UniProt P21439): the log2 fold change was inactive: 0.025.

Consider AARSD1 (UniProt Q9BTE6), for which the log2 fold change was inactive: 0.206.

Compound in the next assay: CCCc1cc(C)[nH]c(=O)c1CNC(=O)c1cc(-c2ccnc(N3CCN(C)CC3)c2)cc2c1cnn2C(C)C
Described as above. A digest of the protocol: as §1
Regarding ABCB1 (UniProt P08183), the log2 fold change was inactive: -0.299.

For ACTB, A0A2R8YGF8, the log2 fold change was inactive: -0.105.

For the target ACYP2 (UniProt P14621), the log2 fold change was inactive: -0.198.

On to ACAT1, A0A5F9ZHJ0, for which the log2 fold change was inactive: -0.181.

ACTG1 (UniProt I3L4N8): the log2 fold change was inactive: -0.004.

With ACCS (UniProt Q96QU6), the log2 fold change was inactive: -0.303.

For the target ABHD17B (UniProt Q5VST6), the log2 fold change was inactive: 0.014.

For ACAA2 (UniProt K7ER88), the log2 fold change was inactive: 0.085.

With ADAD1 (UniProt Q96M93), the log2 fold change was inactive: -0.251.

As to ACP1 (UniProt P24666), the log2 fold change is inactive: 0.039.

Take ABCE1 (UniProt H0Y990): the log2 fold change was inactive: 0.034.

Consider ACTB, A0A2R8YEA7, for which the log2 fold change is inactive: 0.04.

With ACTN1 (UniProt H9KV75), the log2 fold change is inactive: 0.065.

ACVR1 (UniProt Q04771): the log2 fold change is inactive: -0.149.

As for ABHD11 (UniProt Q8NFV4), the log2 fold change was inactive: 0.023.

Regarding ACOX3 (UniProt O15254), the log2 fold change is inactive: 0.184.

As for ACSL6 isoform 1 (UniProt Q9UKU0), the log2 fold change is inactive: 0.035.

As for ABCB4 (UniProt P21439), the log2 fold change is inactive: -0.104.

Consider AARSD1 (UniProt Q9BTE6), for which the log2 fold change was inactive: 0.027.
